Data: patent US20120058906A1
Results are given in words; binding and its absence hold for the method and conditions named. Some binding calls cover weakened binding; strength is not graded here.

Protein sequences, listed by entry. Tags and fused reporters are not part of them. Lines headed by an entry give the natural chain unless they say otherwise; changes in a name come on top.
UniProt Q9NR61: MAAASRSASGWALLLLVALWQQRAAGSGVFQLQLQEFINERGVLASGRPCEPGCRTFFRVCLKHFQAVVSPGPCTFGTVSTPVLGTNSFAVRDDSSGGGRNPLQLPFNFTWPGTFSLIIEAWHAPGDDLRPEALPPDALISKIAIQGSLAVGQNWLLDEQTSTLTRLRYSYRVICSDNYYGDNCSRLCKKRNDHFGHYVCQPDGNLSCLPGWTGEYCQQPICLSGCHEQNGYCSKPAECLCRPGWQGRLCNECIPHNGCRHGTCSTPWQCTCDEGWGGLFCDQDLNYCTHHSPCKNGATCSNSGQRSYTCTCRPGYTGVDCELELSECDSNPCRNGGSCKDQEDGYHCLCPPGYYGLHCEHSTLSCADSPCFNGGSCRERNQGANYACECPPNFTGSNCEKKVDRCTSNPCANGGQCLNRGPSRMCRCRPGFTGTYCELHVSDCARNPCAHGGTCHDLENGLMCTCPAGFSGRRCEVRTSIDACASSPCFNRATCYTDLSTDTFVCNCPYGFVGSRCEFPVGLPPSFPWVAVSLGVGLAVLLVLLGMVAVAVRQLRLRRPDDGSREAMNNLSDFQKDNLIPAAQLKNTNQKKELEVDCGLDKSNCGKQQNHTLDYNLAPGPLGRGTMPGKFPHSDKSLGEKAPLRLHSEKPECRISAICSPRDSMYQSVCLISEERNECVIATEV

Legend:
[1] = molecular target: Recombinant Human DLL4 (R&D Systems Cat#1506-D4/CF) (human) (UniProt Q9NR61); assay: ECL (MSD) multi-spot binding screen, 960 member Fab library; hit = signal to blank ratio greater than 4
[2] = molecular target: Recombinant Human DLL4 (R&D Systems Cat#1506-D4/CF) (human) (UniProt Q9NR61); assay: ECL (MSD) Fab titration; binding affinity estimated from the 50% binding signal
[3] = molecular target: Recombinant Human DLL4 (R&D Systems Cat#1506-D4/CF) (human) (UniProt Q9NR61); assay: MSD ECL screen of 960 Fab library; hit = signal/blank > 4

binding [1]: binds
binding [2]: binds
binding [3]: binds
B1: Fab VH6-1_IGHD3-3*01_IGHJ4*01 & V4-3_IGLJ4*01 (Fab, V domains shown)
VH: QVQLQQSGPGLVKPSQTLSLTCAISGDSVSSNSAAWNWIRQSPSRGLEWLGRTYYRSKWYNDYAVSVKSRITINPDTSKNQFSLQLNSVTPEDTAVYYCAREYYDFWSGYYTDYFDYWGQGTLVTVSS
VL: QPVLTQPTSLSASPGASARLTCTLRSGINLGSYRIFWYQQKPESPPRYLLSYYSDSSKHQGSGVPSRFSGSKDASSNAGILVISGLQSEDEADYYCMIWHSSASFVFGGGTQLIIL
